Drawing on PMC7311640, “The Beta Subunit of Non-bifurcating NADH-Dependent [FeFe]-Hydrogenases Differs From Those of Multimeric Electron-Bifurcating [FeFe]-Hydrogenases” (Frontiers in Microbiology, 2020), this text covers binding for one molecule.

No constants are given. Whether binding was seen depends on the method and setting. Some binding calls cover weakened binding; strength is not graded here. Tags and fused reporters may be left off the sequences shown.

In test [1] the target is T1, HydA, alpha subunit of the Syntrophus aciditrophicus [FeFe]-hydrogenase HydAB (SYN_01370 gene product) with N-terminal His tag (Syntrophus aciditrophicus) (UniProt Q2LSB7).
T1 sequence: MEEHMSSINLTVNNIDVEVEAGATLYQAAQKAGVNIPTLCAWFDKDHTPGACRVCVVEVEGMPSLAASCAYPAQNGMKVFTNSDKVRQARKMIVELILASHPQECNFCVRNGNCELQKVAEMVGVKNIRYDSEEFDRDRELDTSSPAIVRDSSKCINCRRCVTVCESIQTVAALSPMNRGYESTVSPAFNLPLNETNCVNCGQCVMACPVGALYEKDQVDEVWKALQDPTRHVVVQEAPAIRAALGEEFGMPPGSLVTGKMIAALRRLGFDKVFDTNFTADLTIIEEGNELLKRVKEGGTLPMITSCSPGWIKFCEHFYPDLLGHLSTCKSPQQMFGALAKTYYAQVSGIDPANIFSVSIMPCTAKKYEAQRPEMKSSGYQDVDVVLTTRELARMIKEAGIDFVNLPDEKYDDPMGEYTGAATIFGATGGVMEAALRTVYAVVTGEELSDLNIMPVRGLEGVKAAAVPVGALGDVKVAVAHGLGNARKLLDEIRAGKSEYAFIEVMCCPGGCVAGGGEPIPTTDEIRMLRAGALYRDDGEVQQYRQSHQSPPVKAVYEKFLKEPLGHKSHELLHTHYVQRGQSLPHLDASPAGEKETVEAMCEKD
Kind of test: nickel-affinity co-purification; His-tagged HydA and untagged HydB co-expressed in E. coli; cell-free extract on HisTrap HP, washed with 50 mM imidazole, eluted with 250 mM imidazole, anaerobic; fraction analysed by SDS-PAGE and HPLC-MS/MS peptide identification.

For test [2], the target named is T1, HydA, alpha subunit of the Syntrophus aciditrophicus [FeFe]-hydrogenase HydAB (SYN_01370 gene product) with N-terminal His tag (Syntrophus aciditrophicus). Kind of test: SEC; purified HydAB fraction on Superdex 200 10/300 GL calibrated with gel filtration standards; both purified. Background: SEC sorts molecules by how far they enter the pores of the column.

B1: HydB, flavin-containing beta subunit of the Syntrophus aciditrophicus [FeFe]-hydrogenase HydAB (SYN_01369 gene product) (enzyme, UniProt Q2LSB6 1-607)
chain: MITVQDIENVIAARGNAREHLMAILRDLENLSGRNVLDVSVLNTLAMKMDLPQSAISGFTSFYTMFSTEPRAKFIIRVCKSGPCHVMGARTIFDVIENHLGIRAGETTADGLFHLEECECLGLCSAAPAMMVNYDMHGNLSESNIKEILDSYSAREPAFKAEYGPGIEGRAVIINNSQQTRRLLENVGKVDPASIESYLQNGGYEAARKAFAEYSPEQVIGIVKDSGLRGRGGAGFPVGVKWSFVPKGEMQKYVICNADEGEPGTFKDRVLMEENPQQLIEGMLLCGYAIGATLGYIYVRGEYRRSIERLQSAIDQARAKGFLGKKIFGSNFDFDIFVKEGGGAYVCGEETSLINSMEGKRGYPRVRPPFPAAAGFMGMPSNVNNVETLSSIPMIVARGADWFKSVGTATCAGTKLYCLSGKVNQTGLVELPMGATLRQMIDTFGGGMKSGSSFKFAQVGGAAGGILGADLMDLPLDIDSTIKAGVTLGSGVVLVCDQETCAVDFLLNVLNFFEHESCGQCIPCKLGTSQLHYVAQKFAMREAEEKDIQLMIDTAKMMKLASLCALGQSPILPIETMIRNFREEFVKHCDPDYECPQCDASLQAYYL
For the molecule B1, the binding result in test [1] and in test [2] was “binds” each time.
